{"source": "patent US20250264459A1", "about": "“IN VITRO ASSAY TO PREDICT CARDIOTOXICITY” (Stemina Biomarker Discovery, Inc., priority 2018, published 2025)", "test_system": "human iPSC-CM (iCell Cardiomyocytes)", "assay": "Dose-response cell viability (CellTiter-Fluor) in iPSC-derived cardiomyocytes, maximum acceptable viability exposure", "assay_type": "cell-based", "method": "Metabolomic data was acquired to identify non-cytotoxic exposure levels and identify biomarkers of cardiotoxicity from a dose-response experiment using spent medium of iPSC-CM treated with 53 of the compounds in the training set. Briefly, human iPSC-CM (iCell® Cardiomyocytes, cat #R1007, Cellular Dynamics International) were exposed to eight concentrations of each training set compound. Spent media was collected for LC-MS analysis and cell viability was assessed with the CellTiter-Fluor Cell Viability Assay (Promega). Spent media samples were prepared and analyzed using the methods developed in Specific Aim 1. The spent media samples from iPSC-CM treated with 10 representative cardiotoxic and non-cardiotoxic compounds were analyzed with all four LC-MS methods to rank biological significant secretome features by predictive capacity. […]\nThe goal of the concentration-response phase of biomarker identification was to identify non-cytotoxic exposure levels that change iPSC-CM metabolism. The method included modeling feature response, calculating maximum acceptable viability (MAVE), determining response at Cmax, and MAVE, reviewing the top 4 responding features, and selecting the highest tested exposure with 90% viability."}
{"smiles": "COC(=O)C1=C(C)NC(C)=C(C(=O)OC)C1c1ccccc1[N+](=O)[O-]", "note": "[Nifedipine]", "values": [{"measurement": "MAVE (Maximum Acceptable Viability Exposure)", "value": 100, "unit": "µM"}]}
